No constants are given. Whether binding was seen depends on the method and setting. Some entries that bind do so weakly or less than the wild type.

This experiment has as its target T1, hypothetical protein SP_1876 (Streptococcus pneumoniae) (UniProt Q97NX5).
T1 sequence: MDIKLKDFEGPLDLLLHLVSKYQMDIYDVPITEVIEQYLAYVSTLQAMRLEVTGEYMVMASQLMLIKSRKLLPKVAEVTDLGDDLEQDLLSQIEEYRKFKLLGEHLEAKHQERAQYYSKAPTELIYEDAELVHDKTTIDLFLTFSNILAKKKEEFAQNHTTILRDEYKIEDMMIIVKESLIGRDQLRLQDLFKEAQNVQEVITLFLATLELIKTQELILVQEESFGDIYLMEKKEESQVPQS
The experiment is described as follows: two-hybrid; yeast two-hybrid screens of S. pneumoniae ORFs: Gal4-based (individual baits mated with a pooled prey library, selection on SD -Leu -Trp -His with 0.1 mM 3-AT, 30°C) and LexA-based (hypothetical-protein BD clones against an AD array, two-phased pooled mating); which system found a given pair is not given.

B1: SP_0437, Glutamyl-tRNA(Gln) amidotransferase (protein, UniProt Q97SE6 1-488)
chain: MTFNNKTIEELHNLLVSKEISATELTQATLENIKSREEALNSFVTIAEEQALVQAKAIDEAGIDADNVLSGIPLAVKDNISTDGILTTAASKMLYNYEPIFDATAVANAKTKGMIVVGKTNMDEFAMGGSGETSHYGATKNAWNHSKVPGGSSSGSAAAVASGQVRLSLGSDTGGSIRQPAAFNGIVGLKPTYGTVSRFGLIAFGSSLDQIGPFAPTVKENALLLNAIASEDAKDSTSAPVRIADFTSKIGQDIKGMKIALPKEYLGEGIDPEVKETILNAAKHFEKLGAIVEEVSLPHSKYGVAVYYIIASSEASSNLQRFDGIRYGYRAEDATNLDEIYVNSRSQGFGEEVKRRIMLGTFSLSSGYYDAYYKKAGQVRTLIIQDFEKVFADYDLILGPTAPSVAYDLDSLNHDPVAMYLADLLTIPVNLAGLPGISIPAGFSQGLPVGLQLIGPKYSEETIYQAAAAFEATTDYHKQQPVIFGGDN
For the molecule B1, the binding result is on record as “binds”.

B2: SP_1875, Segregation and condensation protein B (protein, UniProt Q97NX6 1-189)
chain: MSTLAKIEALLFVAGEDGIRVRQLAELLSLPPTGIQQSLGKLAQKYEKDPDSSLALIETSGAYRLVTKPQFAEILKEYSKAPINQSLSRAALETLSIIAYKQPITRIEIDAIRGVNSSGALAKLQAFDLIKEDGKKEVLGRPNLYVTTDYFLDYMGINHLEELPVIDELEIQAQESQLFGERIEEDENQ
In the case of B2, the binding result was “binds”.

B3: SP_0701, Orotidine 5′-phosphate decarboxylase (protein, UniProt P0CB75 1-233)
chain: MREHRPIIALDFPSFEAVKEFLALFPAEESLYLKVGMELYYAAGPEIVSYLKGLGHSVFLDLKLHDIPNTVKSAMKILSQLGVDMTNVHAAGGVEMMKAAREGLGSQAKLIAVTQLTSTSEAQMQEFQNIQTSLQESVIHYAKKTAEAGLDGVVCSAQEVQVIKQATNPDFICLTPGIRPAGVAVGDQKRVMTPADAYQIGSDYIVVGRPITQAEDPVAAYHAIKDEWTQDWN
B3: the binding result is reported as “binds”.

B4: SP_1151, Exonuclease (protein, UniProt Q97QQ0 1-1091)
chain: MKLLYTDIRTSLTEILTREAEELVAAGKRVFYIAPNSLSFEKERAVLEYLSQQASFSITVTRFAQMARYLVLNDLPAKTTLDDIGLGLAFYKCLAELDPKDLRVYGAIKQDPQLIQQLIELYHEMTKSQMSFLDLENLTDEDKRADLLLIFEKVTAYLNQGQLAQESQLSHLIEAIENDKVSSDFNQIALVIDGFTRFSAEEERVVDLLHGKGVEIVIGAYASKKAYTSPFSEGNLYQASVKFLHHLASKYQTPAQDCSQTHEKMDSFDKASRLLESSYDFSELALDVDEKDRENLQIWSCLTQKEELELVARSIRQKLHENSDLSYKHFRILLGDVASYQLSLKTIFDQYQIPFYLGRSEAMAHHPLTQFVESILALKRYRFRQEDLINLLRTDLYTDLSQSDIDAFEQYIRYLGINGLPAFQQTFTKSHHGKFNLERLNVLRLRILAPLETLFASRKQKAEKLLQKWSVFLKEGAVTKQLQDLTTTLEAVEQERQAEVWKAFCHVLEQFATVFAGSQVSLEDFLALLHSGMSLSQYRTIPATVDTVLVQSYDLIAPLTADFVYAIGLTQDNLPKISQNTSLLTDEERQNLNQATEEGVQLLIASSENLKKNRYTMLSLVNSARKQLFLSAPSLFNESESKESAYLQELIHFGFRRREKRMNHKGLSKEDMGSYHSLLSSLVAYHQQGEMSDTEQDLTFVKVLSRVIGKKLDQQGLENPAIPTSPSSKTLAKDTLQALYPAKQEFYLSTSGLTEFYRNEYSYFLRYVLGLQEELRLHPDARSHGNFLHRIFERALQLPNEDSFDQRLEQAIQETSQEREFEAIYQESLEAQFTKEVLLDVARTTGHILRHNPAIETIKEEANFGGKDQAFIQLDNGRSVFVRGKVDRIDRLKANGAIGVVDYKSSLTQFQFPHFFNGLNSQLPTYLAALKREGEQNFFGAMYLEMAEPVQSLMAVKSLAGAVVEASKSMKYQGLFLEKESSYLGEFYNKNKANQLTDEEFQLLLDYNAYLYKKAAEKILAGRFAINPYTENGRSIAPYVQQHQAITGFEANYHLGQARFLEKLDLADGKRLVGEKLKQAWLEKIREELNR
With B4, the binding entry is on record as “binds”.

B5: SP_1907, Chaperonin (protein, UniProt Q97NV3 1-94)
chain: MLKPLGDRVVLKIEEKEQTVGGFVLAGSAQEKTKTAQVVATGQGVRTLNGDLVAPSVKTGDRVLVEAHAGLDVKDGDEKYIIVGEANILAIIEE
As for B5, the binding result is “binds”.
